# In all, about 320,000 compounds went through this assay and about 22,000 (6.9%) were called active. The inconclusive results got no clear call from the source; some entries with a clear call stand among them for comparison. The call rests on the fitted dose curve; in most records, active means well fitted inhibition curve with a large enough effect; inconclusive means small, poorly fitted or top-dose-only effect, or another doubt; inactive means no such curve, though single readings can be large or run the other way. Potencies beside an inconclusive call are fits to weak or partial responses and may not hold up.
# Test: Primary qHTS for delayed death inhibitors of the malarial parasite plastid, 96 hour incubation
# Conditions: P. falciparum luciferase reporter growth; series mostly up to 28.7 µM; activity change, negative = inhibition: at the top concentration
# In short: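 Plates of compound plus infected erythrocytes (2% hematocrit, 0.05% parasitemia final) incubate 96 hours, 37 C, 5% CO2. Detection reagent added; reduced luminescence from the parasites' luciferase reporter flags inhibition.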
# On the % scale 0 is the no-effect control and ±100 the full control effect; potency means the concentration at half of the fitted maximal effect.
Compound,"activity change, negative = inhibition",Potency
COCCNC(=O)c1ccc(CS(=O)(=O)c2ccccc2OC)o1,inactive: 19.8%,
O=C(CSc1nnnn1-c1ccccc1)NC(=O)NCc1ccco1,inactive: 36%,
Cc1ccc(-c2c3c(=O)n(C)c(=O)n(C)c3cn2-n2cnnc2)cc1,,"inconclusive: 18.5 µM [inhibitor, single point]"
CCn1c(SCC(=O)Nc2nc(C)cs2)nnc1-c1ccncc1,,"inconclusive: 1.04 µM [inhibitor, full curve]"
Cc1cc(=O)oc2cc(OCC(=O)Nc3ccccc3C(=O)O)ccc12,inactive: -12.2%,
COc1ccc(N2CCN(CC(=O)Nc3ccc(C)c(C)c3)CC2)cc1,inactive: 0%,
CN(C)CCNc1nc2sc3c(c2c(=O)n1-c1ccccc1)CCCCC3,inactive: -26.8%,
O=c1c2ccccc2c(=O)n(Cc2ccccc2)n1Cc1ccccc1,,"inconclusive: 14.7 µM [inhibitor, single point]"
COC(=O)c1cc2occc2n1Cc1c(F)cccc1Cl,,active: 2.62 µM
O=c1cc(CNc2ccc(Br)cc2)nc2sccn12,inactive: 22.1%,
CC1(C)CC(=O)C2=C(C1)N(CCN1CCOCC1)C1=C(C(=O)CC(C)(C)C1)C2c1ccc(Cl)c([N+](=O)[O-])c1,inactive: -2.36%,
CC(C)CNC(=S)N1CCC(NC(=O)c2ccco2)CC1,,active: 11.7 µM
CCCC[n+]1ccn(C2=C([O-])c3ccccc3C(=O)/C2=N\S(=O)(=O)c2ccccc2)c1,,active: 8.28 µM
Cc1ccccc1NC(=O)Cc1cn(C)c2ccccc12,,"inconclusive: 0.0586 µM [inhibitor, full curve, poor fit]"
CCn1c(SCc2ccccc2)nnc1C1CCCCC1,,active: 9.28 µM
CCOC(=O)c1c(/N=C/N(C)C)sc(/C=N/Nc2ccccc2)c1-c1ccccc1Cl,,"inconclusive: 4.65 µM [inhibitor, partial curve, poor fit]"
CCOC(=O)C(NC(=O)c1ccccc1F)(Nc1cc(C)on1)C(F)(F)F (stereo not drawn),,"inconclusive: 16.5 µM [inhibitor, single point]"
Cc1cc(C(=O)CSc2nnc(Nc3ccccc3F)s2)c(C)n1CC1CCCO1 (stereo not drawn),inactive: -0.0774%,
Cc1cc(C)cc(OCCNC(=O)C2CCN(S(=O)(=O)c3ccccc3)CC2)c1,,"inconclusive: 23.3 µM [inhibitor, partial curve, poor fit]"
CC(Cn1cncn1)C(=O)N1CCN(S(=O)(=O)c2ccccc2)CC1 (stereo not drawn),inactive: 17.6%,
COc1ccc(NS(=O)(=O)c2cccc3nsnc23)cc1Cl,inactive: -14.6%,
CC(OC(=O)c1cc2sccc2n1C)C(=O)NC(C)(C)C (stereo not drawn),,"inconclusive: 2.62 µM [inhibitor, single point]"
O=C(Nc1nc2ccccc2[nH]1)C1CC(=O)N(c2ccc3c(c2)OCCO3)C1 (stereo not drawn),,active: 8.28 µM
COc1ccccc1NC(=O)Cc1nnc(SCC(=O)NC2=NCCS2)n1C,inactive: -1.31%,

# As entered above:
# `CC(C)CNC(=S)N1CCC(NC(=O)c2ccco2)CC1` | Potency: active: 11.7 µM
# `CC(Cn1cncn1)C(=O)N1CCN(S(=O)(=O)c2ccccc2)CC1` (stereo not drawn) | activity change, negative = inhibition: inactive: 17.6%

# (continued)

Compound,"activity change, negative = inhibition",Potency
CC(=O)n1c2ccccc2c2nc3ccccc3nc21,,active: 2.62 µM
O=C(C1CCC(Cn2c(=S)[nH]c3ccccc3c2=O)CC1)N1CCN(c2ccccn2)CC1 (stereo not drawn),,active: 11.7 µM
CCOc1ccc(-n2c(-c3ccccc3)c[n+]3c2CCCCC3)cc1,,"inconclusive: 0.329 µM [inhibitor, full curve]"
O=C(Nc1ccccc1)c1cccc(N2C(=O)C3C4C=CC(C4)C3C2=O)c1 (stereo not drawn),,"inconclusive: 18.5 µM [inhibitor, single point]"
CC1C(=O)N(Cc2ccc(F)cc2)c2ccccc2N1C(=O)c1c(F)cccc1F (stereo not drawn),,active: 11.7 µM
O=C(NS(=O)(=O)Oc1ccc(Cl)cc1)OC[C@@H]1CCCN2CCCC[C@H]12,inactive: -5.72%,
COc1cc(/C(C)=N/NC(=O)CSc2nc3ccccc3[nH]2)ccc1O,,"inconclusive: 11.7 µM [inhibitor, single point]"
CCOc1ccccc1N1CN(Cc2ccccc2)CNC1=S,,"inconclusive: 11.7 µM [inhibitor, single point]"
CCOc1ccc(S(=O)(=O)N2CCC(C(=O)NCc3cccnc3)CC2)cc1,,"inconclusive: 0.657 µM [inhibitor, full curve]"
COc1cccc(C(=O)Nc2c(C(N)=O)oc3ccccc23)c1,inactive: 1.91%,
CCOC(=O)c1cnc(-c2ccccc2)nc1Oc1cccc(Cl)c1,,"inconclusive: 1.85 µM [inhibitor, single point]"
COc1ccc(C(=O)NNC(=O)CSc2nnc(C(C)C)n2C)cc1,inactive: 25.5%,
COc1cccc(OC)c1C(=O)NNS(=O)(=O)c1ccc2ccccc2c1,,"inconclusive: 18.5 µM [inhibitor, single point]"
CCC1CCCCN1C(=O)c1cc2c(=O)n3cccc(C)c3nc2s1 (stereo not drawn),,"inconclusive: 2.08 µM [inhibitor, full curve, poor fit]"
Cc1nn(C(=O)CCC(=O)NCc2cccc(F)c2)c2ccccc12,,"inconclusive: 18.5 µM [inhibitor, single point]"
Cc1ccccc1C(=O)Nc1ccccc1N1CCCCC1,,"inconclusive: 18.5 µM [inhibitor, single point]"
COC(=O)/C=C1\N/C(=N\c2nc(C)cc(C)n2)N(c2ccc(C)cc2)C1=O,,"inconclusive: 11.7 µM [inhibitor, single point]"
CCOc1ccc(C(=O)N2CCN(S(=O)(=O)c3ccc4c(c3)OCCO4)CC2)cc1OCC,,"inconclusive: 1.65 µM [inhibitor, partial curve, poor fit]"
Cc1ccc(C(=O)NC2CC(C)(C)NC(C)(C)C2)cc1C,,"inconclusive: 8.28 µM [inhibitor, partial curve, poor fit]"
Cc1cc(-c2ccccc2)nc(N/N=C/c2cccnc2)n1,,"inconclusive: 10.4 µM [inhibitor, single point]"
COc1ccc2nc(-c3ccccc3)cc(C(=O)N3CCC3)c2c1,,"inconclusive: 9.28 µM [inhibitor, single point]"
CCN(CC)S(=O)(=O)c1ccc(/C=C/C(=O)OCC(=O)N(C)C)cc1,inactive: -2.15%,
CCn1ccnc1CNC(=O)CC1C(=O)NCCN1Cc1ccc(F)cc1Cl (stereo not drawn),inactive: -5.79%,
CCn1cnc2c1c(=O)n(CC(=O)NCC(C)C)c(=O)n2Cc1ccccc1,,"inconclusive: 11.7 µM [inhibitor, partial curve, poor fit]"

# Source: PubChem BioAssay AID504834 (National Center for Advancing Translational Sciences (NCATS), 2011)
